Data as given in PubChem BioAssay AID1259327 (Drosophila RNAi Screening Center, 2017).
Here is an unselected part of about 3,100 reagents. 378 of them (12%) count as active. 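Hits include both directions; z-score sign shows ATP rise or fall; raw luminescence values are not plate-normalised.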 Entries without a mark were called inactive. Reagents against one gene are numbered here. A plus sign joins genes that one reagent is predicted to hit. The record does not give: the amount of reagent.

Test: 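Knock-downs altering cellular ATP with no metal added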
Cells: Drosophila S2R+ cells
Knock-down reagent: long dsRNA against Drosophila genes
Duration: 5 days (water added on day 4, read one day later)
Challenge: water added as vehicle, no metal, one day before read-out
Measured: 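Total ATP measured by luciferase light, scaled to plate mean, duplicates averaged, then z-scored across plates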
Reading the numbers: ATP z-score: higher = more total ATP than typical wells; ATP luminescence: higher = more total ATP
Hit rule: 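a hit is any knock-down whose absolute ATP z-score is greater than 1.5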
Calls: active = hit: ATP up or down; inactive = no clear ATP change

The opening 2 entries as a preview:
ATP z-score, duplicate mean	ATP luminescence, replicate 1 (RLU)	ATP luminescence, replicate 2 (RLU)	predicted target	reagent
-0.349	7.16e5	6.63e5	Hacd2	1
-0.0439	6.83e5	7.59e5	Or59c	1

Results, from the start:
ATP z-score, duplicate mean	ATP luminescence, replicate 1 (RLU)	ATP luminescence, replicate 2 (RLU)	predicted target	reagent
-0.349	7.16e5	6.63e5	Hacd2	1
-0.0439	6.83e5	7.59e5	Or59c	1
1.15	4.74e5	6.51e5	Or59c	2
-0.554	5.71e5	8.02e5	Tsp42El	1
-1.22	5.31e5	6.28e5	MFS10	1
0.228	1.06e6	1.09e6	MFS10	2
-1.34	7.77e5	6.67e5	Fad2	1
-0.448	8.34e5	7.54e5	Fad2	2
0.457	7.79e5	7.28e5	CG15408	1
0.412	4.40e5	5.49e5	CG15408	2
-1.31	6.65e5	6.89e5	PGRP-SC1a + PGRP-SC1b	1
-0.895	7.36e5	7.42e5	Hk	1
-1.39	4.21e5	5.04e5	Hk	2
-1.13	5.34e5	4.33e5	ppk22	1
-0.345	6.87e5	6.53e5	CHOp24	1
-1.52 (active)	3.65e5	3.40e5	CHOp24	2
0.239	8.15e5	6.89e5	Irk3	1
-0.349	5.13e5	9.21e5	MstProx	1
-0.29	7.06e5	7.17e5	MstProx	2
1.26	7.65e5	6.06e5	Gr93d	1
1.93 (active)	1.11e6	1.01e6	Ent2	1
-1.61 (active)	3.52e5	3.82e5	Ent2	2
-0.234	7.38e5	6.65e5	CG10505	1
1.2	4.51e5	6.83e5	CG10505	2
1.36	3.69e5	8.86e5	CG8630	1
-0.829	7.77e5	7.17e5	CG8630	2
0.868	7.81e5	8.09e5	Spase25	1
0.449	3.97e5	5.98e5	Spase25	2
-1.23	5.50e5	6.71e5	CNMaR	1
-0.359	8.79e5	8.20e5	CNMaR	2
0.94	5.33e5	5.57e5	rost	1
0.0324	3.01e5	7.65e5	Stt3B	1
0.102	5.17e5	4.26e5	Stt3B	2
-0.997	5.86e5	4.72e5	CG8908	1
0.633	5.28e5	4.88e5	CG8908	2
0.968	8.69e5	7.99e5	Sema1b	1
1.26	1.01e6	1.10e6	Sema1b	2
-0.0246	7.38e5	6.69e5	CG31358 + CG42505 + CG42504	1
0.188	7.35e5	7.56e5	CG31358 + CG42505 + CG42504	2
0.142	3.39e5	6.91e5	CG31358 + CG42505 + CG42504	3
1.6 (active)	8.43e5	9.95e5	Dop2R	1
-0.0392	8.02e5	8.32e5	Dop2R	2
0.208	7.28e5	7.26e5	CG46441	1
0.407	9.19e5	8.29e5	CG46441	2
1.21	8.76e5	8.33e5	Ntl	1
1.53 (active)	9.42e5	9.59e5	Ntl	2
0.57	7.98e5	7.85e5	CG32262	1
0.745	9.74e5	8.56e5	CG32262	2
-1.14	5.99e5	5.40e5	nAChRalpha3	1
-0.207	8.08e5	8.41e5	nAChRalpha3	2
1.26	7.09e5	6.63e5	Octbeta3R	1
0.11	8.89e5	7.87e5	Octbeta3R	2
0.927	1.14e6	9.00e5	Or67a	1
-0.7	2.66e5	6.91e5	Gr93c	1
0.41	6.33e5	6.80e5	MsR2	1
-0.4	8.31e5	7.70e5	MsR2	2
-0.366	8.72e5	9.39e5	MsR2	3
0.978	8.64e5	6.42e5	pHCl-2	1
-0.283	6.75e5	6.78e5	Miro	1
-0.84	3.94e5	4.22e5	Miro	2
0.335	7.09e5	8.27e5	chk	1
0.724	4.91e5	5.71e5	ihog	1
0.0292	1.01e6	6.64e5	ihog	2
-0.536	6.57e5	6.43e5	Ptp4E	1
-0.634	5.66e5	4.85e5	Ptp4E	2
-1.04	4.99e5	4.84e5	Ptp4E	3
0.724	1.01e6	9.71e5	alphaKap4	1
0.068	4.61e5	4.79e5	alphaKap4	2
-0.292	7.04e5	6.86e5	CG9555	1
-0.0669	7.98e5	8.86e5	CG9555	2
-1.81 (active)	2.52e5	4.79e5	COX7A	1
-0.276	7.27e5	6.29e5	Tmtc1	1
1.43	8.47e5	8.60e5	Tmtc1	2
-0.00258	3.12e5	7.30e5	Vha100-4	1
1.45	1.03e6	1.03e6	Vha100-4	2
-0.247	6.50e5	7.10e5	CG9643	1
-0.596	8.92e5	1.01e6	CG9643	2
0.303	9.51e5	9.20e5	CG5104	1
-0.328	4.37e5	4.49e5	CG5104	2
-2.6 (active)	3.13e5	2.80e5	Pvr	1
4.59 (active)	9.70e5	9.67e5	Pvr	2
5.66 (active)	1.00e6	1.12e6	Pvr	3
0.277	7.51e5	7.96e5	Tsp42Eh	1
-0.325	4.66e5	4.45e5	Tsp42Eh	2
0.0827	6.93e5	7.35e5	CG17841	1
-0.335	8.02e5	7.65e5	CG17841	2
-0.759	2.34e5	7.60e5	nac	1
